In article doi:10.1101/2020.09.10.291013:
Results are given in words; binding and its absence hold for the method and conditions named. Binding seen in cells or lysates may run through a third protein. A yes stands for co-enrichment or nearness to the bait. Other partners may have been found. For some of these results: No binding means not detected with the bait. For some of these results: Tags and fused reporters may be left off the sequences shown.

Protein sequences, listed by entry. Tags and fused reporters are not part of them.
UniProt O88895: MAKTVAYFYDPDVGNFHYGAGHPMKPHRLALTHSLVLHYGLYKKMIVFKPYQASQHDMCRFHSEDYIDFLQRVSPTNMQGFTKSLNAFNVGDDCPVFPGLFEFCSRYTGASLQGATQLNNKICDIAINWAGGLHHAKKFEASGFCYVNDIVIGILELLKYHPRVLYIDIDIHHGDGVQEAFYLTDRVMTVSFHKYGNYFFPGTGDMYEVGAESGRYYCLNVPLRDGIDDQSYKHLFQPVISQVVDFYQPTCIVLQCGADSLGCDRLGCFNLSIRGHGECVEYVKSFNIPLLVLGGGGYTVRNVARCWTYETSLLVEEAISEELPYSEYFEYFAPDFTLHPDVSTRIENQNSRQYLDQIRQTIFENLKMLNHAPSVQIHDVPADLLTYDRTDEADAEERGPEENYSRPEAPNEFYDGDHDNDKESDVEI
UniProt Q60974: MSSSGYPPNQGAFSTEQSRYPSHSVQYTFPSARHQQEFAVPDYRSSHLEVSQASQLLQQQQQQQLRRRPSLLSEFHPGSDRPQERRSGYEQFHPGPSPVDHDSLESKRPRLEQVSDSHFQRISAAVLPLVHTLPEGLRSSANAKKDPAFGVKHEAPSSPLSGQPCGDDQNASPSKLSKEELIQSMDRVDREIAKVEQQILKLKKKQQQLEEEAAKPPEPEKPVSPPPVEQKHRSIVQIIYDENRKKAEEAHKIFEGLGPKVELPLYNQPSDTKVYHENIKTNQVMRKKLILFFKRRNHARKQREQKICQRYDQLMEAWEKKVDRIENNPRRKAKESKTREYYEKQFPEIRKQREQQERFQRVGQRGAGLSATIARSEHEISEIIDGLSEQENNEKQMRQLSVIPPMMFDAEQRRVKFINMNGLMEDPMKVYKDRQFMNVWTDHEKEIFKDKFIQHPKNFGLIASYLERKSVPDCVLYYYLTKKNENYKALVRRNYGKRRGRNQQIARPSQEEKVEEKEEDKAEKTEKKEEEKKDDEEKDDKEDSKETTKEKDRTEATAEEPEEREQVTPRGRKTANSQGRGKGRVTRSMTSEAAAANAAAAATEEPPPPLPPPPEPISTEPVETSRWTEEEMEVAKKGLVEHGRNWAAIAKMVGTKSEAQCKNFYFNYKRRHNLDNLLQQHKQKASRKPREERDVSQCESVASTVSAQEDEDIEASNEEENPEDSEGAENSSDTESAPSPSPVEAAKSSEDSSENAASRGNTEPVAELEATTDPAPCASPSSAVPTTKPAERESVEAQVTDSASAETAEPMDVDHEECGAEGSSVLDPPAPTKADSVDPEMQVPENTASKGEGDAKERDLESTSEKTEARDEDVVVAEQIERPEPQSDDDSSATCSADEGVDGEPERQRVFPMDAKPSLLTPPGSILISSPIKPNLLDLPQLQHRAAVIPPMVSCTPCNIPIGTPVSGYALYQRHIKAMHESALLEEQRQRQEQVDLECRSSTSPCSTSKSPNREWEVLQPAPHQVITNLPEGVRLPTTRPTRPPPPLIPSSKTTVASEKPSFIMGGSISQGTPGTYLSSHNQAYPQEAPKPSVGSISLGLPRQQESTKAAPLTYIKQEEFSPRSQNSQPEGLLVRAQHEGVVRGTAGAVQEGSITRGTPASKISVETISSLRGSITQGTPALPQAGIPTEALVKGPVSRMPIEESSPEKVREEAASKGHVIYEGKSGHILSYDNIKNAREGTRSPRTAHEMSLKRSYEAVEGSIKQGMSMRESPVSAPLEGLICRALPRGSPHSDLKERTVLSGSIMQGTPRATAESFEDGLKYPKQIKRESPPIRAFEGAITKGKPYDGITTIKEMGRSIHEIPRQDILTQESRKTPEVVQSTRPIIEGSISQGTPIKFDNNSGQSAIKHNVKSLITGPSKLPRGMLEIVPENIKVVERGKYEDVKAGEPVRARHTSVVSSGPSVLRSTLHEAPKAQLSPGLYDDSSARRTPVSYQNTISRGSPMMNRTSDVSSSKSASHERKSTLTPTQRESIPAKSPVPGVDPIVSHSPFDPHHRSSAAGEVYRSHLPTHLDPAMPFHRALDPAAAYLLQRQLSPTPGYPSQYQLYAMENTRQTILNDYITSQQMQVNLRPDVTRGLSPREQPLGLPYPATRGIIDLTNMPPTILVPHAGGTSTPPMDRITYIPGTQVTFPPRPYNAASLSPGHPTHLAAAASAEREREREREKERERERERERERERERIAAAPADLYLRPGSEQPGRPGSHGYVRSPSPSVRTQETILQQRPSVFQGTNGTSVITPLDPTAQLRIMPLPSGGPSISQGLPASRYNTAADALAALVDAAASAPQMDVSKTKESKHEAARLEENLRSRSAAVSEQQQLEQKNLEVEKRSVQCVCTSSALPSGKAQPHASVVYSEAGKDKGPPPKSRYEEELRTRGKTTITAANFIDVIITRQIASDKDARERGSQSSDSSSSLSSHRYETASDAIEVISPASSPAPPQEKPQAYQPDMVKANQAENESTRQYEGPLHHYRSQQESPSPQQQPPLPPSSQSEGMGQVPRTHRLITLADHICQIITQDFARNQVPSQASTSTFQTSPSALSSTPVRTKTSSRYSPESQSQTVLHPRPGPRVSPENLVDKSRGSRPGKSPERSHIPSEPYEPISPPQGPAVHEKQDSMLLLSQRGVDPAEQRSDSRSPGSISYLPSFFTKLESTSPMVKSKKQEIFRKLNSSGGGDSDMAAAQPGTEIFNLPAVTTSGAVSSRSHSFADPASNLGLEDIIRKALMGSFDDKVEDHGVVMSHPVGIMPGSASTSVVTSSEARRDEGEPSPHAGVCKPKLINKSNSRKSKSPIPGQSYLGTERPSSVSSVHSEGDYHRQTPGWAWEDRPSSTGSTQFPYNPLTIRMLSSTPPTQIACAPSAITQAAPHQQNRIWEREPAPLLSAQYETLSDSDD
UniProt P45448: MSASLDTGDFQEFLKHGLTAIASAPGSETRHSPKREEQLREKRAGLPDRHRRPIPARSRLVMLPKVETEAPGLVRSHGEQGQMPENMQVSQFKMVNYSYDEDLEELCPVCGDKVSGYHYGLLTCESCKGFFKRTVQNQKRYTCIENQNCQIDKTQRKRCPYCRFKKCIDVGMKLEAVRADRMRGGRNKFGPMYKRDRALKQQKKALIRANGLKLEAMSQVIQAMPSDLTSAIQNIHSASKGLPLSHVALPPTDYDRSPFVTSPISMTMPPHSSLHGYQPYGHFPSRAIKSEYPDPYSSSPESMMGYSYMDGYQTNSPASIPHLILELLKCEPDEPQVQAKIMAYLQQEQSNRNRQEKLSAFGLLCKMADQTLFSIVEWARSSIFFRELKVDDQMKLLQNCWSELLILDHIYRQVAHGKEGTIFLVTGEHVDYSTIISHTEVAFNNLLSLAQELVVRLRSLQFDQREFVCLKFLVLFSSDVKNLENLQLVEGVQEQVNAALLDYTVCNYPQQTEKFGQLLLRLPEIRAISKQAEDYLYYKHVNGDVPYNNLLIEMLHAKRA

How the values were obtained:
Experiment in all cases: affinity purification with mass spectrometry
[1] = molecular target: Hdac3 (mouse (endogenous in G6C18 mESCs)) (UniProt O88895)
[2] = molecular target: T1, Esrrb-3GS-3xFLAG-C (UniProt Q61539)
T1 sequence: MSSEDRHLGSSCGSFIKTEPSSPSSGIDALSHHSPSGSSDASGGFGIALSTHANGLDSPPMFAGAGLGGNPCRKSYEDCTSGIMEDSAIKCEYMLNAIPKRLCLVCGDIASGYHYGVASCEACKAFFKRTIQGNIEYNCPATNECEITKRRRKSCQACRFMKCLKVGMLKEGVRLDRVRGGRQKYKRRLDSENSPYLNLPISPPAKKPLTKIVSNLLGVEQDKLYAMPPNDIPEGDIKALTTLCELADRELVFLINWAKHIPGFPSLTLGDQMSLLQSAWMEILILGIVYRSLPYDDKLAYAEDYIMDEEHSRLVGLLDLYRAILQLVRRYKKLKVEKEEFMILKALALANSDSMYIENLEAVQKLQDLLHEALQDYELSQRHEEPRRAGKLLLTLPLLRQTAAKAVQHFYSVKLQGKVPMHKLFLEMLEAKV

[3] = molecular target: T2, N-3xFLAG-3GS-Dax1 (UniProt Q61066)
T2 sequence: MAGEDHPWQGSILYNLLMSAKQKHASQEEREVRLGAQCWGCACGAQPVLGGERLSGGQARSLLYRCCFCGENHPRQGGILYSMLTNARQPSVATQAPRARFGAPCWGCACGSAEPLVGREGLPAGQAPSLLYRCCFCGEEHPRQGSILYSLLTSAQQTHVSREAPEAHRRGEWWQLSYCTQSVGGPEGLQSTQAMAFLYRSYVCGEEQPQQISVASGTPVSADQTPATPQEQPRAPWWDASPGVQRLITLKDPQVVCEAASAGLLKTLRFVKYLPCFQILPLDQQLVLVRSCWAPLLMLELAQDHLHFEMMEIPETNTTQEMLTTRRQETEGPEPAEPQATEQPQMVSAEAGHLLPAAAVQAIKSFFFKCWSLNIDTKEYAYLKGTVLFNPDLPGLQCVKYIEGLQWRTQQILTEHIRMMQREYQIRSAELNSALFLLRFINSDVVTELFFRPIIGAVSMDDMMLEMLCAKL

**Q.** NCor1 (from UniProt Q60974 1-2453) was tested. Which binding [1] did it give?
**A.** The binding was “binds”.

**Q.** Which results are given for Nr5a2 (from UniProt P45448 1-560)?
**A.** binding [2]: binds; binding [3]: binds

B1: Dax1 (protein, UniProt Q61066 1-472)
chain: MAGEDHPWQGSILYNLLMSAKQKHASQEEREVRLGAQCWGCACGAQPVLGGERLSGGQARSLLYRCCFCGENHPRQGGILYSMLTNARQPSVATQAPRARFGAPCWGCACGSAEPLVGREGLPAGQAPSLLYRCCFCGEEHPRQGSILYSLLTSAQQTHVSREAPEAHRRGEWWQLSYCTQSVGGPEGLQSTQAMAFLYRSYVCGEEQPQQISVASGTPVSADQTPATPQEQPRAPWWDASPGVQRLITLKDPQVVCEAASAGLLKTLRFVKYLPCFQILPLDQQLVLVRSCWAPLLMLELAQDHLHFEMMEIPETNTTQEMLTTRRQETEGPEPAEPQATEQPQMVSAEAGHLLPAAAVQAIKSFFFKCWSLNIDTKEYAYLKGTVLFNPDLPGLQCVKYIEGLQWRTQQILTEHIRMMQREYQIRSAELNSALFLLRFINSDVVTELFFRPIIGAVSMDDMMLEMLCAKL
**Q.** B1 was tested. Which binding [1] did it give?
**A.** The binding was “no binding”.
